Results are given in words; binding and its absence hold for the method and conditions named. Some binding calls cover weakened binding; strength is not graded here. Sequences can lack the tags named with a protein.
Target: T1, KREPA2 (MP63) fragment, amino acids 56-176, with N-terminal 6xHis-tag and linker (Trypanosoma brucei)
T1 sequence: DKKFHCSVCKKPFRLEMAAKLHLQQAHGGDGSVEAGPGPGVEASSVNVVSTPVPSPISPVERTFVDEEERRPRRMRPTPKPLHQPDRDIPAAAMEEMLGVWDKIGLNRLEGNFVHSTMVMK
Test: co-purification by IMAC of co-expressed proteins; REL1(51-469) and 6xHis-KREPA2(56-176) co-expressed in E. coli; cleared lysate (20 mM Tris/HCl pH 8.0, 500 mM NaCl, 10% glycerol, 2 mM DTT) on Ni2+ HiTrap FF IMAC by the His tag of KREPA2; wash 40 mM imidazole, elution 40-500 mM imidazole gradient; SDS-PAGE

binding: binds
B1: Trypanosoma brucei RNA editing ligase 1 (REL1), amino acids 51-469 (enzyme, UniProt P86927 51-469)
chain: DQSDFSPYIEIDLPSESRIQSLHKSGLAAQEWVACEKVHGTNFGIYLINQGDHEVVRFAKRSGIMDPNENFFGYHILIDEFTAQIRILNDLLKQKYGLSRVGRLVLNGELFGAKYKHPLVPKSEKWCTLPNGKKFPIAGVQIQREPFPQYSPELHFFAFDIKYSVSGAEEDFVLLGYDEFVEFSSKVPNLLYARALVRGTLDECLAFDVENFMTPLPALLGLGNYPLEGNLAEGVVIRHVRRGDPAVEKHNVSTIIKLRCSSFMELKHPGKQKELKETFIDTVRSGALRRVRGNVTVISDSMLPQVEAAANDLLLNNVSDGRLSNVLSKIGREPLLSGEVSQVDVALMLAKDALKDFLKEVDSLVLNTTLAFRKLLITNVYFESKRLVEQKWKELMQEEAAAQSEAIPPLSPAAPTKGE
